Reference: PubChem BioAssay AID1259308 (NCATS, 2017)
Test: 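Genes whose loss raises luciferase production in HEK293 cells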 (primary screen). Cells: human HEK293 embryonic kidney cells stably expressing firefly luciferase (HEK-CMV-Luc2-Hygro). Reagents: single siRNA against human genes, 0.8 pmol siRNA per well. Time to read-out: 72 h. Detection: 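Luciferase light (ONE-Glo) measured on one replicate plate set and viability (CellTiter-Glo) on the other, scaled to a negative control siRNA, with robust z-scores and luciferase per cell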. Reading the numbers: total luciferase, z-score and total luciferase, % of control: higher = more reporter protein produced. Rule for the call: 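Active when the median/MAD z-score for overall luciferase is greater than 3; a gene was taken forward for validation with new siRNAs if at least two of its three siRNAs passed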. Calls: active = raised luciferase; inactive = no rise.
Here is one part, drawn at random, of about 59,000 reagents. About 1,510 of them (2.6%) were called active. 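Calls use total luciferase alone and ignore viability, so some active siRNAs may act by altering cell number.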 Reagents against one gene are numbered here. Further read-outs or replicates are left out here. No sequences are given here.

gene knocked down	reagent	total luciferase, z-score	total luciferase, % of control	call
NDUFA13 (NADH:ubiquinone oxidoreductase subunit A13)	1	-0.0369	81.2	inactive
NDUFA13 (NADH:ubiquinone oxidoreductase subunit A13)	2	-1.01	61.8	inactive
NDUFA13 (NADH:ubiquinone oxidoreductase subunit A13)	3	0.705	95.9	inactive
FAM174A (family with sequence similarity 174 member A)	1	-1.11	59.8	inactive
FAM174A (family with sequence similarity 174 member A)	2	0.0813	83.5	inactive
FAM174A (family with sequence similarity 174 member A)	3	-0.388	74.2	inactive
GINS3 (GINS complex subunit 3)	1	-0.217	77.6	inactive
GINS3 (GINS complex subunit 3)	2	-1.27	56.6	inactive
GINS3 (GINS complex subunit 3)	3	-0.293	76.1	inactive
TDRD6 (tudor domain containing 6)	1	-0.0763	80.4	inactive
TDRD6 (tudor domain containing 6)	2	-0.11	79.7	inactive
TDRD6 (tudor domain containing 6)	3	-0.193	78.1	inactive
FBXO33 (F-box protein 33)	1	0.0704	83.3	inactive
FBXO33 (F-box protein 33)	2	-0.726	67.4	inactive
FBXO33 (F-box protein 33)	3	-0.651	68.9	inactive
FAM156A (family with sequence similarity 156 member A)	1	-1.33	55.5	inactive
FAM156A (family with sequence similarity 156 member A)	2	-0.0236	81.4	inactive
FAM156A (family with sequence similarity 156 member A)	3	-0.225	77.4	inactive
CAGE1 (cancer antigen 1)	1	0.819	98.2	inactive
CAGE1 (cancer antigen 1)	2	-0.583	70.3	inactive
CAGE1 (cancer antigen 1)	3	0.184	85.5	inactive
MRPL30 (mitochondrial ribosomal protein L30)	1	-1.86	44.8	inactive
MRPL30 (mitochondrial ribosomal protein L30)	2	1.69	115	inactive
MRPL30 (mitochondrial ribosomal protein L30)	3	-0.467	72.6	inactive
ELK3 (ETS transcription factor ELK3)	1	0.47	91.2	inactive
ELK3 (ETS transcription factor ELK3)	2	1.56	113	inactive
ELK3 (ETS transcription factor ELK3)	3	-2.04	41.2	inactive
PPP2R1A (protein phosphatase 2 scaffold subunit Aalpha)	1	3.63	154	active
PPP2R1A (protein phosphatase 2 scaffold subunit Aalpha)	2	4.34	168	active
PPP2R1A (protein phosphatase 2 scaffold subunit Aalpha)	3	3.5	152	active
LTB4R2 (leukotriene B4 receptor 2)	1	0.396	89.8	inactive
LTB4R2 (leukotriene B4 receptor 2)	2	-0.463	72.7	inactive
LTB4R2 (leukotriene B4 receptor 2)	3	-0.465	72.6	inactive
GTSCR1	1	-0.286	76.2	inactive
GTSCR1	2	0.596	93.7	inactive
GTSCR1	3	0.000427	81.9	inactive
IFNAR1 (interferon alpha and beta receptor subunit 1)	1	0.438	90.6	inactive
IFNAR1 (interferon alpha and beta receptor subunit 1)	2	1.11	104	inactive
IFNAR1 (interferon alpha and beta receptor subunit 1)	3	1.54	113	inactive
DUSP29 (dual specificity phosphatase 29)	1	-0.257	76.8	inactive
DUSP29 (dual specificity phosphatase 29)	2	-1.28	56.4	inactive
DUSP29 (dual specificity phosphatase 29)	3	-0.429	73.4	inactive
OR2G3 (olfactory receptor family 2 subfamily G member 3)	1	0.152	84.9	inactive
OR2G3 (olfactory receptor family 2 subfamily G member 3)	2	-0.75	67	inactive
OR2G3 (olfactory receptor family 2 subfamily G member 3)	3	0.636	94.5	inactive
KRTAP5-7 (keratin associated protein 5-7)	1	0.326	88.4	inactive
KRTAP5-7 (keratin associated protein 5-7)	2	-0.518	71.6	inactive
KRTAP5-7 (keratin associated protein 5-7)	3	-0.309	75.7	inactive
TNFSF9 (TNF superfamily member 9)	1	-0.711	67.7	inactive
TNFSF9 (TNF superfamily member 9)	2	0.127	84.4	inactive
TNFSF9 (TNF superfamily member 9)	3	-0.387	74.2	inactive
AKIRIN1 (akirin 1)	1	-0.711	67.8	inactive
AKIRIN1 (akirin 1)	2	0.318	88.2	inactive
AKIRIN1 (akirin 1)	3	0.606	93.9	inactive
RNF220 (ring finger protein 220)	1	0.209	86	inactive
RNF220 (ring finger protein 220)	2	0.00133	81.9	inactive
RNF220 (ring finger protein 220)	3	2.09	124	inactive

3 consecutive reagents from above:
gene knocked down	reagent	total luciferase, z-score	total luciferase, % of control	call
LTB4R2 (leukotriene B4 receptor 2)	2	-0.463	72.7	inactive
LTB4R2 (leukotriene B4 receptor 2)	3	-0.465	72.6	inactive
GTSCR1	1	-0.286	76.2	inactive
